43 targets from the supplement of paper PMC12067093, “Discovery and optimisation of a covalent ligand for TRIM25 and its application to targeted protein ubiquitination” (Chemical Science, 2025) can be followed below.

By UniProt entry, the sequences of proteins in these tests, tags left out. Where a name states a change or a piece, a line headed by the entry shows the natural chain unless it says otherwise.
UniProt P62937, whole entry, looked up: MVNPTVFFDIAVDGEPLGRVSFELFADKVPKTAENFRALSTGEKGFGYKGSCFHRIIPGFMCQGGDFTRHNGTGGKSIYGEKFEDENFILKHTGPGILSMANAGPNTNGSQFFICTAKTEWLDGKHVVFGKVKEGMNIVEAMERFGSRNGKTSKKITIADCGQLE
UniProt P30405: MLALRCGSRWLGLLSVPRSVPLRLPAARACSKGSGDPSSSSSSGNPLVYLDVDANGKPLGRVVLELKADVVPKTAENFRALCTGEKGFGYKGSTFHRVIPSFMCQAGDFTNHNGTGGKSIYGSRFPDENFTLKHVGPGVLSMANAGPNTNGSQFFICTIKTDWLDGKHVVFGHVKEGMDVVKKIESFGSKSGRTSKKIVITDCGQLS
UniProt Q9H2U2: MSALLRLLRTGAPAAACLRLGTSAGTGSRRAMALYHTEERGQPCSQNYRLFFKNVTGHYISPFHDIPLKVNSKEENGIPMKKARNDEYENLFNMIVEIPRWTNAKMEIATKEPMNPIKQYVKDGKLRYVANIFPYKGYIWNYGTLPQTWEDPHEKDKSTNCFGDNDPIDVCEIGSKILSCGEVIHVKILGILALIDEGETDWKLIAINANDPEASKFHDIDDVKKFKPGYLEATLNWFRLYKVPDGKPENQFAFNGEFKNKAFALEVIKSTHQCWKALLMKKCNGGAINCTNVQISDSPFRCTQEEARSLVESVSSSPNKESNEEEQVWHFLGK
UniProt Q08752, whole entry, looked up: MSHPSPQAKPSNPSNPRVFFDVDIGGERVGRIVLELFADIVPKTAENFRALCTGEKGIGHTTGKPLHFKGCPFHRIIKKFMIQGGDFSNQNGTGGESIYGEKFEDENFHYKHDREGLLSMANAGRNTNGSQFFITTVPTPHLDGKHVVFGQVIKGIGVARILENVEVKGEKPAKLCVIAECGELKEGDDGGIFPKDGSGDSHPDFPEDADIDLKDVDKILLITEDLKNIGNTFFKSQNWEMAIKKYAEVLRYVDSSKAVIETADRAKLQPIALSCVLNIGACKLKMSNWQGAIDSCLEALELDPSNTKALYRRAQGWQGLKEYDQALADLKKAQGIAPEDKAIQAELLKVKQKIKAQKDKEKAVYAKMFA
UniProt Q9BY77: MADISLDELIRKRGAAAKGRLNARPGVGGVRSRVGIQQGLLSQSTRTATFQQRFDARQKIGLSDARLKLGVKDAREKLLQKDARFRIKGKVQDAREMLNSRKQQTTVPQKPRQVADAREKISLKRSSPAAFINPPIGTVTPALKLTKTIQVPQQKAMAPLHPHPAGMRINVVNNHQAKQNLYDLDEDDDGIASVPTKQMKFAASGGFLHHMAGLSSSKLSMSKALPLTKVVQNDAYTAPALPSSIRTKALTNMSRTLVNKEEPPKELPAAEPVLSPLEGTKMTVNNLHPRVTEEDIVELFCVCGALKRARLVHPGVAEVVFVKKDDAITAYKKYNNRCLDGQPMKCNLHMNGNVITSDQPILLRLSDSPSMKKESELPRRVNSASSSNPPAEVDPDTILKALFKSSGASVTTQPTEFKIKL
UniProt Q9NVU0: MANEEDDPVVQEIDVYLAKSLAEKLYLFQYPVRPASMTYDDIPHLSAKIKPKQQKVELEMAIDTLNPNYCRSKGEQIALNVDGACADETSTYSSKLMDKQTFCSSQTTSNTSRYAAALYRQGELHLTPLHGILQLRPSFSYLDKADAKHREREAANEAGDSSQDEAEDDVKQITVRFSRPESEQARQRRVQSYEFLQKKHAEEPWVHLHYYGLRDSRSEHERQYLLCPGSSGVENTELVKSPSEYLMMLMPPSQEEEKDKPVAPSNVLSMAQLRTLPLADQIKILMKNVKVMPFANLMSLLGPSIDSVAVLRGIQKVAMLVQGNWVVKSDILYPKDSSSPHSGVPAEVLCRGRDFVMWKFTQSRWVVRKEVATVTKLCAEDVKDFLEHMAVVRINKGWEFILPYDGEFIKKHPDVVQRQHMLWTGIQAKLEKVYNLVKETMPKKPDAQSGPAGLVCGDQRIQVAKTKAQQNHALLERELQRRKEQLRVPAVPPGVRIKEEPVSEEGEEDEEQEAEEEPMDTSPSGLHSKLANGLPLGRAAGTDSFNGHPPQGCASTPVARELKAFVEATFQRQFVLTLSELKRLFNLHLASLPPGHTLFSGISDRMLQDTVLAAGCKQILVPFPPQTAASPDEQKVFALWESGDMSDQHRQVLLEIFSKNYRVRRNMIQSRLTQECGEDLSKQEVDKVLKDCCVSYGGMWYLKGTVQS
UniProt P28340: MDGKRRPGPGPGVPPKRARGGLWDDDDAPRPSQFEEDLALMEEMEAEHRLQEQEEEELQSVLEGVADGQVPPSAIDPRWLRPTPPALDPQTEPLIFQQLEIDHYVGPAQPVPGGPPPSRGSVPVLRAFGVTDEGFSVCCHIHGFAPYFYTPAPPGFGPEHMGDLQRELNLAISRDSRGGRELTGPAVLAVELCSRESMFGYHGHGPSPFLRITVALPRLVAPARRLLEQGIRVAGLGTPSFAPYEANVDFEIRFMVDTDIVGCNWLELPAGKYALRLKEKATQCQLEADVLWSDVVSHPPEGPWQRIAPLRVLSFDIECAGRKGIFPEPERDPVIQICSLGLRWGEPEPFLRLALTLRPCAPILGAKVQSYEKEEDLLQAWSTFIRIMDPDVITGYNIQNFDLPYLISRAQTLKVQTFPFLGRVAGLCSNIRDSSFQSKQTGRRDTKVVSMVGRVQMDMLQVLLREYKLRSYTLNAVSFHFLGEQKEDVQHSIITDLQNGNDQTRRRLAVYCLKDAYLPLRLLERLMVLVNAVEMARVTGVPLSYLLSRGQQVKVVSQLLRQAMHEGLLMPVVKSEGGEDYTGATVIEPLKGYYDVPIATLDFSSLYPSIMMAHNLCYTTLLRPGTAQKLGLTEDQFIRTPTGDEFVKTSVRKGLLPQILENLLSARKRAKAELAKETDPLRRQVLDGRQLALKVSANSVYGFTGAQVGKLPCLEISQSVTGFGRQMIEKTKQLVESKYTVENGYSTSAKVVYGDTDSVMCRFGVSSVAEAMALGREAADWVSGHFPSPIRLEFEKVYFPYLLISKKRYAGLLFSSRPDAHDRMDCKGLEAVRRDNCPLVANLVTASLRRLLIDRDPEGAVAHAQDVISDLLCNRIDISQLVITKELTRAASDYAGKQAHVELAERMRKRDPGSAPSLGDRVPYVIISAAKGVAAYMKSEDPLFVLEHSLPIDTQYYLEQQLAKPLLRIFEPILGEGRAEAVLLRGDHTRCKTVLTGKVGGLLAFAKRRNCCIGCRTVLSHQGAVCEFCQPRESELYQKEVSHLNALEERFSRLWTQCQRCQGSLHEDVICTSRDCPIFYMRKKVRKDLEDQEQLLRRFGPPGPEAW
UniProt Q99575: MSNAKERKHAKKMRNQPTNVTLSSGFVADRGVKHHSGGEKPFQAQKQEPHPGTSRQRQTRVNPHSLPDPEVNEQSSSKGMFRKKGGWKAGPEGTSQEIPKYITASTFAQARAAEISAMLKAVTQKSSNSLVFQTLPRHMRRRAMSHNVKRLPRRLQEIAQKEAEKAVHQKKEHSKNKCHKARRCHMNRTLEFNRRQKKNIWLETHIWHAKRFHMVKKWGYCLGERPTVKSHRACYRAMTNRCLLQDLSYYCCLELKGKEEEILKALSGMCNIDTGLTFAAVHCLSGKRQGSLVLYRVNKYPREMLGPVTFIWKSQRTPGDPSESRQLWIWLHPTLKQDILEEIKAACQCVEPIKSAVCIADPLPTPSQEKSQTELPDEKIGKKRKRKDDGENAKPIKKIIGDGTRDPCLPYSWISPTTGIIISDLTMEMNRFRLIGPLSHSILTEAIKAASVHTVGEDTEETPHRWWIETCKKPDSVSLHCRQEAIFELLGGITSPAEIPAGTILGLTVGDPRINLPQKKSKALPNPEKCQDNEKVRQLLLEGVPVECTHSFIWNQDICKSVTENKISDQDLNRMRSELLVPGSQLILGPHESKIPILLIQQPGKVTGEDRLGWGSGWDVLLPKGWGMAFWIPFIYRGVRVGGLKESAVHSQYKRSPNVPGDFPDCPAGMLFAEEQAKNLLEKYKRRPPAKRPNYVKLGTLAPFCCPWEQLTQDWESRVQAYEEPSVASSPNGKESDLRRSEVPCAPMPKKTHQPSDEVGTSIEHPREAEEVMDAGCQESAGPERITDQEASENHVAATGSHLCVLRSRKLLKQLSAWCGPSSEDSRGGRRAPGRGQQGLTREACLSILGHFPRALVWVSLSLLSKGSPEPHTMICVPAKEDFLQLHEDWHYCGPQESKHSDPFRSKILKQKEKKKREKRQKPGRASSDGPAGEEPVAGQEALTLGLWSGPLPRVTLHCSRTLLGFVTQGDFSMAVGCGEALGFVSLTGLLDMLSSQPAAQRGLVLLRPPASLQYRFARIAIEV
UniProt O95602, whole entry, looked up: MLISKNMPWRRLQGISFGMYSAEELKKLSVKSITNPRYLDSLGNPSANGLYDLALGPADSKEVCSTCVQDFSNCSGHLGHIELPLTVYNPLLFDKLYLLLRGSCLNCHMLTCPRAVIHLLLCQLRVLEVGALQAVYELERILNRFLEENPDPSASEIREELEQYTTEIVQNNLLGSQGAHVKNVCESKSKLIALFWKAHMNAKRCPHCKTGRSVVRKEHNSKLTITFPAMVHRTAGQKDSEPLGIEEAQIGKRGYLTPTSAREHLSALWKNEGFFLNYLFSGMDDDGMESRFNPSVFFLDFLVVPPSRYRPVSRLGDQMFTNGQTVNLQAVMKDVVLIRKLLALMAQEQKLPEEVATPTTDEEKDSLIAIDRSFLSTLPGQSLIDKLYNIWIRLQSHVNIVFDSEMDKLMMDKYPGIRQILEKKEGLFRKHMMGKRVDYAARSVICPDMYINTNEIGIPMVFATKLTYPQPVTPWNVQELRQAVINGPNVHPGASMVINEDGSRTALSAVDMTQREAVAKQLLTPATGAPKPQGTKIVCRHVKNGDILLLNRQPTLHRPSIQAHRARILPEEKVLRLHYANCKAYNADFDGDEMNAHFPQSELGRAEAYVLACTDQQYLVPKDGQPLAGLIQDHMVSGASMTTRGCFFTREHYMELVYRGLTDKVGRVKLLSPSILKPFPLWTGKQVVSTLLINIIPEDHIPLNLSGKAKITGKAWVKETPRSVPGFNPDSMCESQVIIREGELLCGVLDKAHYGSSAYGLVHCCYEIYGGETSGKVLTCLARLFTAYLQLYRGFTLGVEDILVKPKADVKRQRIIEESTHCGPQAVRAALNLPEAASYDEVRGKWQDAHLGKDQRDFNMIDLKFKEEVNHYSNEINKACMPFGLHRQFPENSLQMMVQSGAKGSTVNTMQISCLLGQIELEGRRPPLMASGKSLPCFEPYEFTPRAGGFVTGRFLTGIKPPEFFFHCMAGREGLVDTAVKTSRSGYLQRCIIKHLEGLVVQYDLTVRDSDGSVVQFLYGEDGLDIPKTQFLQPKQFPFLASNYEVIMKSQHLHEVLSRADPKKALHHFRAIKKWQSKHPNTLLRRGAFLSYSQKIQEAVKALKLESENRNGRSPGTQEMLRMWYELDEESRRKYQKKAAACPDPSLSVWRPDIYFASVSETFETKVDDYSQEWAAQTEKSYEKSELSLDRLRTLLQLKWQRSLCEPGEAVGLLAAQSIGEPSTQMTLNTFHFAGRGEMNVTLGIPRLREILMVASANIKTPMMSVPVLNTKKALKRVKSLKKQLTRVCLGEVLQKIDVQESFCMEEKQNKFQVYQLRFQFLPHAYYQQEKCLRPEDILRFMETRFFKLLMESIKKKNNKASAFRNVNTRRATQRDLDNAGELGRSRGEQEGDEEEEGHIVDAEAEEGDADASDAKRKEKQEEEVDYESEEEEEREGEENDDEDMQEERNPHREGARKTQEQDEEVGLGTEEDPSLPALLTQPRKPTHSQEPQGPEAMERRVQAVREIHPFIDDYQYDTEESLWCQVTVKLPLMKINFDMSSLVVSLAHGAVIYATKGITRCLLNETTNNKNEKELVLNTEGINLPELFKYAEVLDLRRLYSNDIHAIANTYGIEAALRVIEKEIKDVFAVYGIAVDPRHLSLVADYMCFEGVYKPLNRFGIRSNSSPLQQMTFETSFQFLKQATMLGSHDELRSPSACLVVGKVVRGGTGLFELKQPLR
UniProt Q15181: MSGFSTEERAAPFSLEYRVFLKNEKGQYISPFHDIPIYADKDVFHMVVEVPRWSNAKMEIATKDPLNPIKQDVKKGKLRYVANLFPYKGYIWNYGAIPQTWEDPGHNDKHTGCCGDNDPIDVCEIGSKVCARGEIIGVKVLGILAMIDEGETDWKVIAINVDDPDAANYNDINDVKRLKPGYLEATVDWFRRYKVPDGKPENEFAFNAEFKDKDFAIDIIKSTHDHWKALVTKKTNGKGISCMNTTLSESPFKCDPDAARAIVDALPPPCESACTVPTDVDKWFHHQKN
UniProt Q9H2H8: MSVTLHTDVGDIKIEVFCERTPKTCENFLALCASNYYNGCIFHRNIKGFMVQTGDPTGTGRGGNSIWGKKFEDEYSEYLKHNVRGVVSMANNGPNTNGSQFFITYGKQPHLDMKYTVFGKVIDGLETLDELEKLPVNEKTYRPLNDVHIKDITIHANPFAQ

Some of the results follow.

Compound in this assay: Cc1cc(ccc1-c1ccccc1)C(=O)N1CCCN(CC1)C(=O)CCl [compound 10]
The assay is described as follows: probe-labelled cysteine peptide fold change vs DMSO (competition) (log2 fold change); higher = less target engagement (more negative = stronger competition). To be noted: THP-1, incubation time: 4 h.
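Note: competitive profiling in live THP-1 cells: cysteine peptides tagged with an iodoacetamide desthiobiotin (IA-DTB) probe, intensity after compound treatment relative to DMSO-treated cells.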

As for “POLR2A_P24928_602_QIFSLIIPGHINCIR (UniProt P24928)”, the “probe-labelled cysteine peptide fold change” value is -0.259 (10 µM) and -0.0818 (50 µM).

For the target “PPIA_P62937_161_KITIADCGQLE (UniProt P62937)”, the “probe-labelled cysteine peptide fold change” value was -0.0511 (10 µM) and 0.017 (50 µM).

Turning to “PPIF_P30405_203_IVITDCGQLS (UniProt P30405)”, the “probe-labelled cysteine peptide fold change” value runs as follows: (10 µM) -0.136; (50 µM) 0.00957.

With “PPA2_Q9H2U2_180_ILSCGEVIHVK (UniProt Q9H2U2)”, the “probe-labelled cysteine peptide fold change” value is, setting by setting: (10 µM) -0.106; (50 µM) -0.00292.

“POLR3A_O14802_742_LQQQPGCTAEETLEALILK (UniProt O14802)”: the “probe-labelled cysteine peptide fold change” value is -0.214 (10 µM) and -0.0338 (50 µM).

Take “PPID_Q08752_181_LCVIAECGELK (UniProt Q08752)”: the “probe-labelled cysteine peptide fold change” value reads like this: (10 µM) -0.357; (50 µM) -0.1.

In the case of “PPFIBP1_Q86W92_140_IRDLEFCLEEHR (UniProt Q86W92)”, the “probe-labelled cysteine peptide fold change” value is, setting by setting: (10 µM) -0.0297; (50 µM) 0.0847.

Consider “POLK_Q9UBT6_161_RLCPQLIIVPPNFDK (UniProt Q9UBT6)”, for which the “probe-labelled cysteine peptide fold change” value reads like this: (10 µM) 0.148; (50 µM) 0.283.

Turning to “POLDIP3_Q9BY77_301+303_VTEEDIVELFCVCGALK (UniProt Q9BY77)”, the “probe-labelled cysteine peptide fold change” value (10 µM) turned out to be 0.0436 and the “probe-labelled cysteine peptide fold change” value (50 µM) is -0.521.

Consider “POLM_Q9NP87_222_VVQELLEHGVCEEVER (UniProt Q9NP87)”, for which the “probe-labelled cysteine peptide fold change” value runs as follows: (10 µM) 0.155; (50 µM) 0.0162.

With “PPAT_Q06203_503_SGHCTACLTGK (UniProt Q06203)”, the “probe-labelled cysteine peptide fold change” value by setting is: (10 µM) 0.12; (50 µM) -0.199.

On to “PPIF_P30405_203_KIVITDCGQLS (UniProt P30405)”, for which the “probe-labelled cysteine peptide fold change” value was -0.114 (10 µM) and -0.218 (50 µM).

Regarding “PPIE_Q9UNP9_198_IIPQFMCQGGDFTNHNGTGGK (UniProt Q9UNP9)”, the “probe-labelled cysteine peptide fold change” value is, setting by setting: (10 µM) 0.0421; (50 µM) -0.134.

On to “POLR3E_Q9NVU0_103_QTFCSSQTTSNTSR (UniProt Q9NVU0)”, for which the “probe-labelled cysteine peptide fold change” value was found to be 0.0155 (10 µM) and 0.0106 (50 µM).

As for “POLR2A_P24928_1407_HLALLCDTMTCR (UniProt P24928)”, the “probe-labelled cysteine peptide fold change” value is, setting by setting: (10 µM) 0.0274; (50 µM) 0.0822.

Regarding “POLD1_P28340_338_GIFPEPERDPVIQICSLGLR (UniProt P28340)”, the “probe-labelled cysteine peptide fold change” value by setting is: (10 µM) 0.127; (50 µM) -0.0464.

Regarding “POP1_Q99575_819_QLSAWCGPSSEDSR (UniProt Q99575)”, the “probe-labelled cysteine peptide fold change” value was 0.0101 (10 µM) and -0.114 (50 µM).

“PPA2_Q9H2U2_161_DKSTNCFGDNDPIDVCEIGSK (UniProt Q9H2U2)”: the “probe-labelled cysteine peptide fold change” value runs as follows: (10 µM) -0.0888; (50 µM) -0.0943.

Turning to “POLR1A_O95602_1332_CLRPEDILR (UniProt O95602)”, the “probe-labelled cysteine peptide fold change” value runs as follows: (10 µM) -0.466; (50 µM) 0.569.

“PPIB_P23284_202_DVIIADCGK (UniProt P23284)”: the “probe-labelled cysteine peptide fold change” value by setting is: (10 µM) -0.227; (50 µM) 0.178.

Turning to “POP1_Q99575_270+283_ALSGMCNIDTGLTFAAVHCLSGK (UniProt Q99575)”, the “probe-labelled cysteine peptide fold change” value by setting is: (10 µM) 0.101; (50 µM) -0.135.

For the target “POSTN_Q15063_44_DQGPNVCALQQILGTKK (UniProt Q15063)”, the “probe-labelled cysteine peptide fold change” value was -0.609 (10 µM) and -0.645 (50 µM).

With “POLB_P06746_239_FMGVCQLPSK (UniProt P06746)”, the “probe-labelled cysteine peptide fold change” value by setting is: (10 µM) 0.161; (50 µM) 0.104.

Take “POP1_Q99575_845_EACLSILGHFPR (UniProt Q99575)”: the “probe-labelled cysteine peptide fold change” value reads like this: (10 µM) -0.151; (50 µM) 0.306.

For “POLR1D_P0DPB6_39_HCVTFVLHEEDHTLGNSLR (UniProt P0DPB6)”, the “probe-labelled cysteine peptide fold change” value is 0.329 (10 µM) and -0.0119 (50 µM).

Regarding “PPA1_Q15181_254_CDPDAAR (UniProt Q15181)”, the “probe-labelled cysteine peptide fold change” value runs as follows: (10 µM) -0.296; (50 µM) -0.072.

For “PPIA_P62937_52_GFGYKGSCFHR (UniProt P62937)”, the “probe-labelled cysteine peptide fold change” value turned out to be 0.0838 (10 µM) and 0.0104 (50 µM).

Consider “POLDIP3_Q9BY77_338_CLDGQPMK (UniProt Q9BY77)”, for which the “probe-labelled cysteine peptide fold change” value by setting is: (10 µM) -0.0475; (50 µM) -0.204.

On to “PPIL3_Q9H2H8_25_TCENFLALCASNYYNGCIFHR (UniProt Q9H2H8)”, for which the “probe-labelled cysteine peptide fold change” value is, setting by setting: (10 µM) -0.416; (50 µM) -0.172.

For the target “POMGNT1_Q8WZA1_490_ECIIPDVSR (UniProt Q8WZA1)”, the “probe-labelled cysteine peptide fold change” value is, setting by setting: (10 µM) -0.0343; (50 µM) 0.0625.

As to “PPCDC_Q96CD2_7_ASCPAAAPLMER (UniProt Q96CD2)”, the “probe-labelled cysteine peptide fold change” value is -0.486 (10 µM) and -0.968 (50 µM).

As for POLE_Q07864_558_SDIPCR (UniProt Q07864), the “probe-labelled cysteine peptide fold change” value (10 µM) stood at 0.152 and the “probe-labelled cysteine peptide fold change” value (50 µM) was -0.202.

For “POGZ_Q7Z3K3_398_GHMCYCCPEMVEYQK (UniProt Q7Z3K3)”, the “probe-labelled cysteine peptide fold change” value is -0.15 (10 µM) and 0.138 (50 µM).

Regarding “POLA2_Q14181_556_DVLGCVCVNPGR (UniProt Q14181)”, the “probe-labelled cysteine peptide fold change” value came to 0.00896 (10 µM) and 0.156 (50 µM).

As for “POLR1C_O15160_214_PVHDDILIAQLRPGQEIDLLMHCVK (UniProt O15160)”, the “probe-labelled cysteine peptide fold change” value is -0.0314 (10 µM) and -0.119 (50 µM).

For “POLR2A_P24928_233_ISDEECFVLGMEPR (UniProt P24928)”, the “probe-labelled cysteine peptide fold change” value (10 µM) is 0.078 and the “probe-labelled cysteine peptide fold change” value (50 µM) was 0.0416.

On to “POR_P16435_566_EVGETLLYYGCR (UniProt P16435)”, for which the “probe-labelled cysteine peptide fold change” value is, setting by setting: (10 µM) 0.0903; (50 µM) 0.182.

Consider “PPIL4_Q8WUA2_40_YYNYCLIHNVQR (UniProt Q8WUA2)”, for which the “probe-labelled cysteine peptide fold change” value reads like this: (10 µM) 0.0828; (50 µM) 0.501.

For the target “POLR2B_P30876_892_DCSTFLR (UniProt P30876)”, the “probe-labelled cysteine peptide fold change” value (10 µM) was -0.225 and the “probe-labelled cysteine peptide fold change” value (50 µM) was -0.0376.

On to “POLR1A_O95602_914_GSTVNTMQISCLLGQIELEGR (UniProt O95602)”, for which the “probe-labelled cysteine peptide fold change” value (10 µM) is -0.0412 and the “probe-labelled cysteine peptide fold change” value (50 µM) worked out at 0.147.

As to “POLR3B_Q9NW08_1054_LGEMERDCLIGYGASMLLLER (UniProt Q9NW08)”, the “probe-labelled cysteine peptide fold change” value reads like this: (10 µM) -0.0449; (50 µM) -0.0847.

For the target “POLB_P06746_178_KVDSEYIATVCGSFR (UniProt P06746)”, the “probe-labelled cysteine peptide fold change” value runs as follows: (10 µM) -0.0366; (50 µM) 0.166.

Regarding “PPIA_P62937-2_2_CQGGDFTR (UniProt P62937)”, the “probe-labelled cysteine peptide fold change” value was 0.0904 (10 µM) and 0.163 (50 µM).
